The record followed here is paper PMC7819943, “Rice protein-binding microarrays: a tool to detect cis-acting elements near promoter regions in rice”.

The chains behind the UniProt entries cited, without tags or fusion partners.
UniProt Q0JBA9, entry or part of it: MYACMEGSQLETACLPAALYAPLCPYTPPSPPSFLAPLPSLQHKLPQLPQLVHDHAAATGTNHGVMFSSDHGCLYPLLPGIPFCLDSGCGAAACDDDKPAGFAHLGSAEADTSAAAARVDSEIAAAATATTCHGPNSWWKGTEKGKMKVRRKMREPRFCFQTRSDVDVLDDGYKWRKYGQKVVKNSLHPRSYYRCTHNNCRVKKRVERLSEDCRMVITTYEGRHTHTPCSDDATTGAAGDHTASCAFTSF

The other results are listed elsewhere or left out.

This test deals with OsWRKY34 (Oryza sativa, UniProt Q0JBA9 1-250). In words: protein-binding microarray (RPBM); PBS, 2% BSA, 51.3 ng/ul salmon testes DNA, 50 uM zinc acetate, 200 nM TF, 25 C, 1 h; high values mean tight binding. As to conditions: protein: recombinant; tags: N-terminal polyhistidine and DsRed monomer fusion (pET32a); label: CyDye5-dUTP incorporated in the synthesized complementary strand; 3' TTTTT single-stranded linker to array surface; dsDNA, one strand shown. Put shortly:
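An Axon 4000B scanner gave the binding signal as per-feature fluorescence intensity in arbitrary units. This followed washing of a custom Agilent array that had been incubated for 1 h at 25 °C with 200 nM protein in PBS, 2% BSA, salmon testes DNA and 50 µM zinc acetate. The proteins were transcription factors fused at the N-terminus to polyhistidine and DsRed, expressed in E. coli BL21-CodonPlus and purified on Ni–NTA.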
With “GCCAATCCCCATCGACCGTCACCCGCACGTCTTCCGCGGCCGGAGTCACCTAGTGCAG”, the binding signal was 10100 fluorescence intensity (a.u.).
Next, “GGTTCTTGCTGCCATGGTTAAGGAGTGGGAGGTTTAGAGTCGGAGTCACCTAGTGCAG”: 8240 fluorescence intensity (a.u.); “CTTTTCATTCTTTATTTTTTCCTTTGCATGTTCTACAACACGGAGTCACCTAGTGCAG”: 12900 fluorescence intensity (a.u.); “GACTACCGATATTTTCCTTTCGTTGTTTTCCCCTGTTACACGGAGTCACCTAGTGCAG”: 14700 fluorescence intensity (a.u.).
Then “CACTCTTACCTATACACCATTTAATAAGAGACATTATAGTCGGAGTCACCTAGTGCAG”, with 8170 fluorescence intensity (a.u.).
Next, “CTTCCCCGCCGCCTCCACGCACTCCTCCCACGCCACGAACCGGAGTCACCTAGTGCAG”: 8880 fluorescence intensity (a.u.); “GGCTGCCACCACTCGATCTCTCTTATCGGAGCATTGCCGGCGGAGTCACCTAGTGCAG”: 8480 fluorescence intensity (a.u.); “AGTGATGCTTAGTTCTCCGATATGACTTCATTTCTGGCATCGGAGTCACCTAGTGCAG”: 8040 fluorescence intensity (a.u.).
Regarding “GTGAATAGTTATCCTTGTCCAGTATATGTTTGTTCTTTCGCGGAGTCACCTAGTGCAG”, the binding signal was 12400 fluorescence intensity (a.u.).
Next, “TTACTTTGTGTTAGGTAATCCATTTGTCTGTACCCTCATACGGAGTCACCTAGTGCAG”: 8080 fluorescence intensity (a.u.); “GACTTTCTCATATTTAACACGTGACTCTCTATTCTTCCACCGGAGTCACCTAGTGCAG”: 11900 fluorescence intensity (a.u.).
Regarding “CGCCGTCGTCGACCTGGAGCTTCTCGGCGATCTCCTCGAACGGAGTCACCTAGTGCAG”, the binding signal was 9210 fluorescence intensity (a.u.).
Next, “AACATGAGTCAAAGCTACTCCATCTTCATGTCCCAATCCCCGGAGTCACCTAGTGCAG”: 8080 fluorescence intensity (a.u.); “ATCACTTCCTTATGGTGGATCCCGTCGAGCCCAACCCAAACGGAGTCACCTAGTGCAG”: 8810 fluorescence intensity (a.u.).
Next, “CACTGACGCGCCCCTCCACCTCCCGTAGTTCTTCCGTCCCCGGAGTCACCTAGTGCAG”: 9380 fluorescence intensity (a.u.); “GCCTTTCATCTTCATTCATTCCACCGTGCTTTGCAGCTGACGGAGTCACCTAGTGCAG”: 11900 fluorescence intensity (a.u.); “CTTTCCATTCTCTGGAAGCAAATTGCGCTCTCTGGATCTTCGGAGTCACCTAGTGCAG”: 9250 fluorescence intensity (a.u.).
Turning to “CATCGCCGCCGCCGCCGGTATCTCGCTGACCTTTCCTCTCCGGAGTCACCTAGTGCAG”, the binding signal was 8400 fluorescence intensity (a.u.).
As to “TCATTTCCCACCATATTTCTCATCTCGTGGTTGGGGATCCCGGAGTCACCTAGTGCAG”, the binding signal was 8780 fluorescence intensity (a.u.).
Next, “ATTATTTTTTATTTTTTAATAAGCCGTTTTTGTTCTACTACGGAGTCACCTAGTGCAG”: 9430 fluorescence intensity (a.u.).
Then “CTGGTCAGAGTCCCCAACCAAAAGCATTTCTCCTGCCTTCCGGAGTCACCTAGTGCAG”, with 8660 fluorescence intensity (a.u.); and “CATAACGTTTCCGCTCCTGATCGATCGGCTTCACGCACGCCGGAGTCACCTAGTGCAG”, with 8730 fluorescence intensity (a.u.); and “GGCGGCGGCGGCGGCGGTGGTGGTGAGGAGGAGGAGGAGGCGGAGTCACCTAGTGCAG”, with 10700 fluorescence intensity (a.u.).
Then “CATCATGAACATTGGTTGGATTCCTTGAGAGGTCAGATTCCGGAGTCACCTAGTGCAG”, with 8470 fluorescence intensity (a.u.); and “AAAACTCTGCTATATATACGTACTCGCCATAGTCAGCGCGCGGAGTCACCTAGTGCAG”, with 8420 fluorescence intensity (a.u.); and “ACGAATCCAACGCCCTTTGTCATCCACCTCGTGTCGCTCGCGGAGTCACCTAGTGCAG”, with 8620 fluorescence intensity (a.u.).
As to “TTGGACAAAATCCATCCGAACTTTGACATTTGCATTTTGGCGGAGTCACCTAGTGCAG”, the binding signal was 8090 fluorescence intensity (a.u.).
Then “CCGGCACCGATTCCTGCCTCCGCCTTTGAATTCCGCCGCGCGGAGTCACCTAGTGCAG”, with 8620 fluorescence intensity (a.u.); and “CTGCTTTTTTTGATCGATCGGTGAGTTTTCTGAAACACCTCGGAGTCACCTAGTGCAG”, with 13400 fluorescence intensity (a.u.).
Next, “TTCTGCCTCTCGTTGCCTTCATACTATTTGCTATGTCTTCCGGAGTCACCTAGTGCAG”: 9510 fluorescence intensity (a.u.).
Then “GTGCTGCTTGTTGAAACGTTGAGTAGTTGTCGCTGCCATTCGGAGTCACCTAGTGCAG”, with 8860 fluorescence intensity (a.u.); and “CAGATCCTTTGTCCGAGCTATCTTCCGAAAAGCTTTTAAACGGAGTCACCTAGTGCAG”, with 10100 fluorescence intensity (a.u.).
For “AGTTATAGGGTAGATGTGTGTCGTGCATGCTGCATACTACCGGAGTCACCTAGTGCAG”, the binding signal was 9040 fluorescence intensity (a.u.).
Regarding “ATTAAGGGCCTGTTCACTTTGATGCCATTTTCAACCATACCGGAGTCACCTAGTGCAG”, the binding signal was 9710 fluorescence intensity (a.u.).
Regarding “TAGTGTGTTTCTTGCCGGCGTCTCCATCCACTCTCCTGACCGGAGTCACCTAGTGCAG”, the binding signal is 9580 fluorescence intensity (a.u.).
Regarding “TTTATCCTTCGACTGTGTTTATCCTTTTTCTGATGTGTTTCGGAGTCACCTAGTGCAG”, the binding signal was 10700 fluorescence intensity (a.u.).
Then “TACACGGCTACACGCTCGGCTCCTGACCCGGCGCCGGCGACGGAGTCACCTAGTGCAG”, with 8630 fluorescence intensity (a.u.); and “TCCCGTCTCGTCTCCGCTCCTTGCGCCTGCGCCGATCTCCCGGAGTCACCTAGTGCAG”, with 8930 fluorescence intensity (a.u.).
Take “AATACTACTCCCTCTATTTCAGGTTATAAGACGTTTTGACCGGAGTCACCTAGTGCAG”: the binding signal is 9310 fluorescence intensity (a.u.).
With “ACTGCCTCTCCGTTGAATAATTCCTGTAACTGGCATAACACGGAGTCACCTAGTGCAG”, the binding signal is 8270 fluorescence intensity (a.u.).
Then “GTACGTTACTAATCGCAGTTATACTCGCAGCTCATACATTCGGAGTCACCTAGTGCAG”, with 9920 fluorescence intensity (a.u.).
Regarding “TATCACATTTGCGTTTTGCATTTTTTGCACTGCATTTCATCGGAGTCACCTAGTGCAG”, the binding signal was 11000 fluorescence intensity (a.u.).
Then “TTCTTGTATTCTGTTGTGCCTTTTTGGGCTTGCAATTAAGCGGAGTCACCTAGTGCAG”, with 9550 fluorescence intensity (a.u.); and “TAAGTGAGTCGTCCCATTTCATTTCATCAGCCAATCATCACGGAGTCACCTAGTGCAG”, with 9740 fluorescence intensity (a.u.); and “AACCCTGTCCACGTCTGCTCGTCGCCATGGCCTCTCGTTCCGGAGTCACCTAGTGCAG”, with 14800 fluorescence intensity (a.u.).
Next, “CCTGTCCATCTCGTGGCCACAGCTAAGCCGCCAATTCCCACGGAGTCACCTAGTGCAG”: 9510 fluorescence intensity (a.u.); “CCTCGTCAAGTTCTCTTATGGCAATCATACTAGATTATTTCGGAGTCACCTAGTGCAG”: 9280 fluorescence intensity (a.u.); “TGGCCGTCCATTCCCGATCAGAATCCGCTATATACCCTCTCGGAGTCACCTAGTGCAG”: 8030 fluorescence intensity (a.u.).
For the sequence “GGTCGTGTTCAATATTTTCTTGTAGGACATGTCATTCTCACGGAGTCACCTAGTGCAG”, the binding signal was 12900 fluorescence intensity (a.u.).
Then “ATACACAGGTCTTGAGTAGCTCGAAAGCCGTGCAGCTTTTCGGAGTCACCTAGTGCAG”, with 8340 fluorescence intensity (a.u.); and “AAAAGTTGTGTGTGTATGAAATGTTTGATGTGATGGAAAACGGAGTCACCTAGTGCAG”, with 8340 fluorescence intensity (a.u.); and “TCGTTTGGTTGGCGGGAGTTTTAAGAGGGATTAGGAGTTTCGGAGTCACCTAGTGCAG”, with 9020 fluorescence intensity (a.u.).
Next, “GATGAGTCCTCACCTGAGTTTCTTCCGTCCATGGCGGCCGCGGAGTCACCTAGTGCAG”: 10500 fluorescence intensity (a.u.); “ACCTGTAAACTACCGTTGGATAAAAAATAAACGTATGAGACGGAGTCACCTAGTGCAG”: 63600 fluorescence intensity (a.u.).
